Laboratory results from PubChem BioAssay AID256 (DTP/NCI, 2004).
The list shows only some results of the screen, not a fair sample: it gathers tests that were run many times, whatever their T/C, doses with no T/C, and many T/C values between a quarter and a half above the control. Other doses and runs of a compound stand elsewhere. T/C gives the treated animals as a percentage of the vehicle group. Some entries give survivors of the animals treated and no T/C: the source holds a T/C of zero for them, seemingly a mark for toxic or unscored doses. Some doses without a T/C left all or most animals alive at the check, yet need not have been tolerated: survival well below the control is almost never listed, so the zero probably covers shortened survival too. Survivors were counted at the toxicity check, usually on the fifth day, unless a day is given; later deaths do not show. Schedules are NCI's codes, read here as Q, the interval in days (D) or hours (H), X, the number of doses. Where survival is the endpoint, this PubChem deposit counts one and a half times the control or more as active, and values a quarter to a half above the control carry no call in these data; other NCI protocols may use other cut-offs. Some doses were run more than once; their values stand side by side, smallest first.

Test system: CD2F1 mice, L1210 leukemia ip, survival T/C
Test: NCI In Vivo Anticancer Drug Screen. Data for tumor model L1210 Leukemia (intraperitoneal) in CD2F1 (CDF1) mice
Conditions: higher T/C = longer survival
How it was run: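 Tumor-bearing mice (transplanted tumor) were split into treated and vehicle control groups, and the measured endpoint of each treated group was divided by that of its vehicle controls.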

[1] = T/C endpoint: mean survival time, dose: 400.0 mg/kg/injection, schedule: Q01DX001 (ip), vehicle: saline with Tween-80
[2] = T/C endpoint: mean survival time, dose: 100.0 mg/kg/injection, schedule: Q04DX003 (ip), vehicle: distilled water + Tween-80
[3] = T/C endpoint: mean survival time, dose: 200.0 mg/kg/injection, schedule: Q01DX001 (ip), vehicle: saline with Tween-80
[4] = T/C endpoint: median survival time, dose: 400.0 mg/kg/injection, schedule: Q01DX009 (ip), vehicle: saline with Tween-80
[5] = T/C endpoint: mean survival time, dose: 200.0 mg/kg/injection, schedule: Q04DX003 (ip), vehicle: saline with Tween-80
[6] = T/C endpoint: mean survival time, dose: 100.0 mg/kg/injection, schedule: Q01DX009 (ip), vehicle: saline with Tween-80
[7] = T/C endpoint: mean survival time, dose: 400.0 mg/kg/injection, schedule: Q01DX009 (ip), vehicle: saline with Tween-80

With `O=C(O)/C(O)=C(/O)C(=O)O.[NH-]C1CCCCC1[NH-].[Pt+2]` the T/C (T/C endpoint: median survival time, dose: 3.12 mg/kg/injection, schedule: Q04DX003 (ip), vehicle: saline) was 132 % of control, the T/C (T/C endpoint: median survival time, dose: 50.0 mg/kg/injection, schedule: Q04DX003 (ip), vehicle: saline) was 133 % of control and the T/C (T/C endpoint: median survival time, dose: 100.0 mg/kg/injection, schedule: Q04DX003 (ip), vehicle: saline) was 141 and 146 % of control. The survivor count (T/C endpoint: median survival time, dose: 200.0 mg/kg/injection, schedule: Q04DX003 (ip), vehicle: saline) was 6 of 6.
For `CCCCCCC/C=N/NC(=O)c1ccc[n+](C)c1`, the survivor count [1] was 0 of 6.
With `[Cl][Pt+2][Cl].[NH-]CC1CCCC[N-]1` (centres undefined) the T/C (T/C endpoint: mean survival time, dose: 25.0 mg/kg/injection, schedule: Q04DX003 (ip), vehicle: distilled water + Tween-80) was 142 % of control, the T/C (T/C endpoint: mean survival time, dose: 50.0 mg/kg/injection, schedule: Q04DX003 (ip), vehicle: distilled water + Tween-80) was 141 % of control and the T/C [2] was 135 % of control. For the same compound, the survivor count [2] was 6 of 6, the survivor count (T/C endpoint: mean survival time, dose: 200.0 mg/kg/injection, schedule: Q04DX003 (ip), vehicle: distilled water + Tween-80) was 6 of 6 and the survivor count (T/C endpoint: mean survival time, dose: 400.0 mg/kg/injection, schedule: Q04DX003 (ip), vehicle: distilled water + Tween-80) was 5 of 6. The T/C (T/C endpoint: median survival time, dose: 6.25 mg/kg/injection, schedule: Q04DX002 (ip), vehicle: saline) was 137 % of control.
For `CCC1CC(=O)C2Nc3ccccc3C2C1` (centres undefined), the survivor count [3] was 6 of 6.
In the case of `CC1=CC(C)(N=[N+]=[N-])CC(C)(C)C1` (centres undefined), the survivor count (T/C endpoint: mean survival time, dose: 150.0 mg/kg/injection, schedule: Q01DX009 (ip), vehicle: saline) is reported as 0 of 6.
For `O=C(C=C(C(F)(F)F)C(F)(F)F)c1cccc(S(=O)(=O)F)c1`, the survivor count [3] was 3 of 6 and the survivor count [1] was 0 of 6.
With `Cn1nnc2c(C(N)=O)ncn2c1=O` the T/C (T/C endpoint: median survival time, dose: 25.0 mg/kg/injection, schedule: Q01DX009 (ip), vehicle: saline with Tween-80) was 139 % of control and the survivor count [4] was 4 of 6.
For `O=C(O)C(S(=O)(=O)O)S(=O)(=O)O`, the survivor count (T/C endpoint: mean survival time, dose: 12.5 mg/kg/injection, schedule: Q01DX001 (ip), vehicle: saline with Tween-80) was 3 of 3, the survivor count (T/C endpoint: mean survival time, dose: 25.0 mg/kg/injection, schedule: Q01DX001 (ip), vehicle: saline with Tween-80) was 3 of 3 and the survivor count (T/C endpoint: mean survival time, dose: 50.0 mg/kg/injection, schedule: Q01DX001 (ip), vehicle: saline with Tween-80) was 2 of 3. For the same compound, the survivor count (T/C endpoint: mean survival time, dose: 100.0 mg/kg/injection, schedule: Q01DX001 (ip), vehicle: saline with Tween-80) was 1 of 3, the survivor count [3] was 2 of 3 and the survivor count [1] was 0 of 3.
With `Nc1ccc(OCC(O)CN2CCN(c3ccccc3)CC2)cc1` (centres undefined) the survivor count (T/C endpoint: mean survival time, dose: 400.0 mg/kg/injection, schedule: Q04DX002 (ip), vehicle: saline with Tween-80) was 3 of 3.
`O=C(Nc1ccc(F)cc1)c1ccc(C(=O)Nc2ccc(F)cc2)cc1` was tested, and the survivor count [5] was 6 of 6.
For `CC1(C)CC(OP(=O)(OC2CC(C)(C)N(O)C(C)(C)C2)N2CC2)CC(C)(C)N1O`, the T/C (T/C endpoint: mean survival time, dose: 50.0 mg/kg/injection, schedule: Q01DX009 (ip), vehicle: water) was 130 % of control, the T/C (T/C endpoint: mean survival time, dose: 100.0 mg/kg/injection, schedule: Q01DX009 (ip), vehicle: water) was 128 % of control and the survivor count (T/C endpoint: mean survival time, dose: 200.0 mg/kg/injection, schedule: Q01DX009 (ip), vehicle: water) was 4 of 6.
`O=C(CC(O)C(Cl)(Cl)Cl)c1ccccc1` (centres undefined) was tested, and the survivor count (T/C endpoint: mean survival time, dose: 200.0 mg/kg/injection, schedule: Q04DX002 (ip), vehicle: saline with Tween-80) was 0 of 3.
`Cn1cccc1-c1cccnc1` was tested, and the survivor count (T/C endpoint: mean survival time, dose: 300.0 mg/kg/injection, schedule: Q01DX001 (ip), vehicle: saline) was 1 of 6.
`NC(=O)c1[nH]nc(C2OC(COP(=O)(O)O)C(O)C2O)c1O` (centres undefined) was tested, and the survivor count (T/C endpoint: median survival time, dose: 50.0 mg/kg/injection, schedule: Q01DX005 (ip), vehicle: saline) was 6 of 6 and the survivor count (T/C endpoint: median survival time, dose: 100.0 mg/kg/injection, schedule: Q01DX005 (ip), vehicle: saline) was 0 of 6.
For `CCCCS(=O)CC(CO)NC(=O)/C=C/c1c(C)[nH]c(=O)[nH]c1=O` (centres undefined), the T/C (T/C endpoint: mean survival time, dose: 1.25 mg/kg/injection, schedule: Q01DX009 (ip), vehicle: water) was 132 % of control, the T/C (T/C endpoint: mean survival time, dose: 5.0 mg/kg/injection, schedule: Q01DX009 (ip), vehicle: water) was 138 % of control and the T/C (T/C endpoint: mean survival time, dose: 10.0 mg/kg/injection, schedule: Q01DX009 (ip), vehicle: water) was 125 % of control.
`O=C(N/N=C\c1ccc(F)cc1)N/N=C/c1ccc(F)cc1` was tested, and the survivor count [6] was 3 of 3.
`c1ccc(C[n+]2cccc3ccccc32)cc1` was tested, and the survivor count (T/C endpoint: mean survival time, dose: 100.0 mg/kg/injection, schedule: Q04DX003 (ip), vehicle: saline with Tween-80) was 2 of 6, the survivor count [5] was 0 of 6 and the survivor count (T/C endpoint: mean survival time, dose: 400.0 mg/kg/injection, schedule: Q04DX003 (ip), vehicle: saline with Tween-80) was 0 of 6.
`O=C(Nc1ccc(OCC2=NCCN2)cc1)c1ccc(C(=O)Nc2ccc(OCC3=NCCN3)cc2)cc1` was tested, and the survivor count (T/C endpoint: median survival time, dose: 100.0 mg/kg/injection, schedule: Q01DX009 (ip), vehicle: saline with Tween-80) was 2 of 6, the survivor count (T/C endpoint: median survival time, dose: 200.0 mg/kg/injection, schedule: Q01DX009 (ip), vehicle: saline with Tween-80) was 0 of 6 and the survivor count [4] was 0 of 6.
In the case of `Cc1ccc(Sc2cccc3c2C(=O)c2c(Sc4ccc(C)cc4)cccc2C3=O)cc1`, the survivor count [7] is reported as 3 of 6.
For `Nc1cc(N)c2cccnc2c1O`, the survivor count (T/C endpoint: mean survival time, dose: 25.0 mg/kg/injection, schedule: Q01DX009 (ip), vehicle: saline) was 0 of 6.
In the case of `COC(C(=O)C(O)C(C)O)C1Cc2cc3cc(OC4CC(OC5CC(O)C(O)C(C)O5)C(O)C(C)O4)c(C)c(O)c3c(O)c2C(=O)C1OC1CC(OC2CC(O)C(OC3CC(C)(O)C(O)C(C)O3)C(C)O2)C(O)C(C)O1` (centres undefined), the survivor count (T/C endpoint: mean survival time, dose: 2.0 mg/kg/injection, schedule: Q01DX009 (ip), vehicle: saline) is reported as 3 of 6.
In the case of `CC(C)(C)N1CCCC1`, the survivor count (T/C endpoint: mean survival time, dose: 200.0 mg/kg/injection, schedule: Q04DX003 (ip), vehicle: acetone) is reported as 0 of 6 and the survivor count (T/C endpoint: mean survival time, dose: 400.0 mg/kg/injection, schedule: Q04DX003 (ip), vehicle: acetone) is reported as 0 of 6.
In the case of `N#Cc1nc(-c2ccco2)c(-c2ccco2)nc1C#N`, the survivor count [3] is reported as 5 of 6 and the survivor count [1] is reported as 2 of 6.
In the case of `[Cl][Ga]([Cl])[Cl]`, the survivor count (T/C endpoint: mean survival time, dose: 200.0 mg/kg/injection, schedule: Q04DX003 (ip), vehicle: saline) is reported as 2 of 6 and the survivor count (T/C endpoint: mean survival time, dose: 400.0 mg/kg/injection, schedule: Q01DX001 (ip), vehicle: saline) is reported as 3 of 6.
For `CCOc1ccc(-c2nc3ccc(-c4nc5ccc(N6CCN(C)CC6)cc5[nH]4)cc3[nH]2)cc1`, the T/C (T/C endpoint: median survival time, dose: 1.56 mg/kg/injection, schedule: Q01DX009 (ip), vehicle: saline) was 125 % of control, the T/C (T/C endpoint: median survival time, dose: 3.0 mg/kg/injection, schedule: Q01DX009 (ip), vehicle: saline) was 130 % of control and the T/C (T/C endpoint: median survival time, dose: 3.12 mg/kg/injection, schedule: Q01DX009 (ip), vehicle: saline) was 131 % of control. The T/C (T/C endpoint: median survival time, dose: 6.0 mg/kg/injection, schedule: Q01DX009 (ip), vehicle: saline) was 126 % of control, the T/C (T/C endpoint: median survival time, dose: 6.25 mg/kg/injection, schedule: Q01DX009 (ip), vehicle: saline) was 135 % of control and the T/C (T/C endpoint: median survival time, dose: 12.0 mg/kg/injection, schedule: Q01DX009 (ip), vehicle: saline) was 134 % of control. For the same compound, the T/C (T/C endpoint: median survival time, dose: 12.5 mg/kg/injection, schedule: Q01DX009 (ip), vehicle: saline) was 146 % of control and the survivor count (T/C endpoint: median survival time, dose: 25.0 mg/kg/injection, schedule: Q01DX009 (ip), vehicle: saline) was 5 of 6.
In the case of `CCC(/C=C1\Oc2ccc(-c3ccccc3)cc2N1CC)=C\c1oc2ccc(-c3ccccc3)cc2[n+]1CC`, the survivor count (T/C endpoint: mean survival time, dose: 6.6 mg/kg/injection, schedule: Q01DX009 (ip), vehicle: other) is reported as 3 of 6, the survivor count (T/C endpoint: mean survival time, dose: 10.0 mg/kg/injection, schedule: Q01DX009 (ip), vehicle: other) is reported as 0 of 6 and the survivor count (T/C endpoint: mean survival time, dose: 15.0 mg/kg/injection, schedule: Q01DX009 (ip), vehicle: other) is reported as 0 of 6. For the same compound, the survivor count (T/C endpoint: mean survival time, dose: 75.0 mg/kg/injection, schedule: Q01DX001 (ip), vehicle: other) was 0 of 6, the survivor count (T/C endpoint: mean survival time, dose: 150.0 mg/kg/injection, schedule: Q01DX001 (ip), vehicle: other) was 0 of 6 and the survivor count (T/C endpoint: mean survival time, dose: 300.0 mg/kg/injection, schedule: Q01DX001 (ip), vehicle: other) was 0 of 6.
`CC(=O)CC(=O)Nc1ccccc1` was tested, and the survivor count [6] was 3 of 6, the survivor count (T/C endpoint: mean survival time, dose: 200.0 mg/kg/injection, schedule: Q01DX009 (ip), vehicle: saline with Tween-80) was 0 of 6 and the survivor count [7] was 0 of 6.
